Source: PubChem BioAssay AID493246 (Drosophila RNAi Screening Center, 2011)
Test: 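Genes fly cells need to grow and stay alive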 (primary screen). System: Drosophila Kc and S2R+ cells. Reagents: long dsRNA against Drosophila genes. Measured: 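Raw, unnormalised count of remaining cells in each well; per-plate z-scores of cell number underlie the calls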. Reading the numbers: Kc cell number and S2R+ cell number: higher = more cells remaining. Rule for the call: 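Counted as a hit if cell number falls by a z-score of at least 3 within its plate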.
The screen tested about 21,000 reagents; this is a random part of those that have a named target and a result. Over the whole deposit, 429 (2%) got an active call. 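Values are raw and not normalised between plates; calls rest on per-plate z-scores that were not deposited.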 Reagent sequences are not shown. Not given: the amount of reagent, the time to read-out.

| target | amplicon | Kc cell number, rep 1 | Kc cell number, rep 2 | S2R+ cell number, rep 1 | S2R+ cell number, rep 2 | Outcome |
| --- | --- | --- | --- | --- | --- | --- |
| EbpIII (GeneID 49821) | DRSC04638 | 1.49e6 | 1.53e6 | 1.24e6 | 1.34e6 | inactive |
| CG32100 (GeneID 39400) | DRSC09725 | 1.43e6 | 1.59e6 | 1.24e6 | 1.34e6 | inactive |
| CG32100 (GeneID 39400) | DRSC10331 | 1.40e6 | 1.57e6 | 1.22e6 | 1.30e6 | inactive |
| CG13850 (GeneID 42630) | DRSC14700 | 1.49e6 | 1.57e6 | 1.14e6 | 1.23e6 | inactive |
| pths (GeneID 35379) | DRSC03171 | 1.46e6 | 1.57e6 | 1.23e6 | 3.66e5 | inactive |
| CG5326 (GeneID 42655) | DRSC13568 | 1.44e6 | 1.50e6 | 1.04e6 | 1.13e6 | inactive |
| CG5326 (GeneID 42655) | DRSC15770 | 1.47e6 | 1.61e6 | 1.13e6 | 1.17e6 | inactive |
| CG12464 (GeneID 36516) | DRSC06156 | 1.47e6 | 1.53e6 | 1.23e6 | 1.32e6 | inactive |
| Alp13 (GeneID 41236) | DRSC15781 | 1.63e6 | 1.53e6 | 1.24e6 | 1.36e6 | inactive |
| CG15239 (GeneID 31343) | DRSC17972 | 1.62e6 | 1.65e6 | 9.81e5 | 1.13e6 | inactive |
| Art7 (GeneID 37664) | DRSC04588 | 1.62e6 | 1.76e6 | 1.39e6 | 1.51e6 | inactive |
| CG1468 (GeneID 31920) | DRSC17946 | 6.22e5 | – | 8.53e5 | – | inactive |
| PlexA (GeneID 43832) | DRSC17220 | 4.65e5 | – | 8.54e5 | – | inactive |
| dpr4 (GeneID 3346160) | DRSC14531 | 1.58e6 | 1.58e6 | 1.38e6 | 1.47e6 | inactive |
| dpr4 (GeneID 3346160) | DRSC14929 | 1.51e6 | 1.53e6 | 1.34e6 | 1.46e6 | inactive |

Quoted from above, 2 entries:
| target | amplicon | Kc cell number, rep 1 | Kc cell number, rep 2 | S2R+ cell number, rep 1 | S2R+ cell number, rep 2 | Outcome |
| --- | --- | --- | --- | --- | --- | --- |
| Art7 (GeneID 37664) | DRSC04588 | 1.62e6 | 1.76e6 | 1.39e6 | 1.51e6 | inactive |
| CG1468 (GeneID 31920) | DRSC17946 | 6.22e5 | – | 8.53e5 | – | inactive |

The results go on:
| target | amplicon | Kc cell number, rep 1 | Kc cell number, rep 2 | S2R+ cell number, rep 1 | S2R+ cell number, rep 2 | Outcome |
| --- | --- | --- | --- | --- | --- | --- |
| CG7497 (GeneID 39966) | DRSC10857 | 1.75e6 | 1.82e6 | 1.41e6 | 1.47e6 | inactive |
| Arpc3B (GeneID 32696) | DRSC20126 | 1.44e6 | 1.48e6 | 9.63e5 | 1.06e6 | inactive |
| CG14606 (GeneID 40866) | DRSC12550 | 1.48e6 | 1.44e6 | 1.37e6 | 1.43e6 | inactive |
| RpS18 (GeneID 37292) | DRSC07540 | 1.00e6 | 1.13e6 | 7.74e5 | 8.89e5 | active |
| IFT43 (GeneID 34676) | DRSC02892 | 1.39e6 | 1.51e6 | 1.26e6 | 1.23e6 | inactive |
| NO66 (GeneID 31374) | DRSC18252 | 5.80e5 | – | 8.51e5 | – | inactive |
| CG11334 (GeneID 43713) | DRSC14066 | 1.24e6 | 1.59e6 | 1.12e6 | 1.17e6 | inactive |
| CG11334 (GeneID 43713) | DRSC14302 | 1.57e6 | 1.57e6 | 1.05e6 | 1.16e6 | inactive |
| CG17075 (GeneID 33191) | DRSC00483 | 1.26e6 | 1.34e6 | 9.53e5 | 9.49e5 | inactive |
